Measurements reported in PMC7461331, “Stability of Begomoviral pathogenicity determinant βC1 is modulated by mutually antagonistic SUMOylation and SIM interactions” (BMC Biology, 2020).
These are yes or no findings as the source states them, for the method shown. A result given as binding can be weak or reduced; the word gives no strength. Sequences can lack the tags named with a protein. For some of these results: In cells and extracts the contact can be indirect.

How the values were obtained:
[1] = target: MBP-tagged SyYVCV βC1 expressed in plants (Synedrella yellow vein clearing virus); assay: co-IP; MBP-βC1 transiently co-expressed with GFP-tagged SUMO proteins in N. tabacum; IP with anti-MBP (MBP magnetic beads), blot with anti-GFP and anti-MBP; 4-20% denaturing reducing gel
[2] = target: SyYVCV βC1 fused to the binding domain (yeast two-hybrid bait) (Synedrella yellow vein clearing virus); assay: two-hybrid; βC1 fused to the binding domain (pGBKT7) as bait, SUMO proteins fused to the activation domain (pGADT7) as prey, yeast AH109; selected on -Leu -Trp, screened on -Leu -Trp -His with or without 3AT (0.2 mM 3AT for NbSUMO1) and on -Leu -Trp -His -Ade

B1: GFP-tagged AtSUMO3 (protein, UniProt Q9FLP5 1-111)
chain: MSNPQDDKPIDQEQEAHVILKVKSQDGDEVLFKNKKSAPLKKLMYVYCDRRGLKLDAFAFIFNGARIGGLETPDELDMEDGDVIDACRAMSGGLRANQRQWSYMLFDHNGL
Question: Which binding [1] does the source give for B1 here?
Answer: binds weakly

B2: AtSUMO3 fused to the activation domain (yeast two-hybrid prey) (protein, UniProt Q9FLP5 1-111)
chain: MSNPQDDKPIDQEQEAHVILKVKSQDGDEVLFKNKKSAPLKKLMYVYCDRRGLKLDAFAFIFNGARIGGLETPDELDMEDGDVIDACRAMSGGLRANQRQWSYMLFDHNGL
Question: Which binding [2] does the source give for B2 here?
Answer: binds

B3: GFP-tagged AtSUMO5 (protein, UniProt Q8VZI7 1-108)
chain: MVSSTDTISASFVSKKSRSPETSPHMKVTLKVKNQQGAEDLYKIGTHAHLKKLMSAYCTKRNLDYSSVRFVYNGREIKARQTPAQLHMEEEDEICMVMELGGGGPYTP
Question: How did the binding [1] turn out when B3 was run?
Answer: binds weakly

B4: AtSUMO5 fused to the activation domain (yeast two-hybrid prey) (protein, UniProt Q8VZI7 1-108)
chain: MVSSTDTISASFVSKKSRSPETSPHMKVTLKVKNQQGAEDLYKIGTHAHLKKLMSAYCTKRNLDYSSVRFVYNGREIKARQTPAQLHMEEEDEICMVMELGGGGPYTP
Question: With B4 as the binder, how does the binding [2] read?
Answer: binds
